The text below walks through data of PubChem BioAssay AID1487 (National Center for Advancing Translational Sciences (NCATS), 2009).

The list shows a part of the results. The main result of the screen is listed elsewhere. These columns were measured beside it and carry no call. Compounds called inactive in the main read-out are mostly missing here. Potencies come from curve fits of mixed quality, noted in brackets.

The nature of this assay: qHTS Assay for Modulators of Lamin A Splicing. The conditions noted are these: HeLa LMNA splicing GFP/RFP minigene ratio, 48 h. The source says:
NCGC Assay Overview: Hutchinson-Gilford Progeria Syndrome (HGPS) is a pediatric premature aging disease caused by a spontaneous mutation in the lamin A/C (LMNA) gene. The mutation activates a cryptic splice site in the LMNA pre-mRNA which results in production of a pre-lamin A protein that cannot be processed properly. The mutant protein accumulates in the nucleus and negatively affects numerous cellular functions. Correction of the splicing defect in HGPS patient cells using a targeted oligonucleotide (exo11) leads to reversal of the cellular disease phenotypes. To identify small molecule modulators of aberrant LMNA splicing, a homogenous assay was constructed in HeLa cells that used a GFP containing minigene to report on correction of aberrant splicing in lamin A and a RFP (DsRed2) to report on cell viability, uniformity and nonspecific effects on the assay signal. This assay was adapted to laser-scanning microplate cytometry (Acumen, TTP Labtech) where miniaturization of the assay to a 1,536-well plate format was possible. References: Bowen, W. P.; Wylie, P. G. Application of Laser-Scanning Fluorescence Microplate Cytometry in High Content Screening. Assay Drug Dev Technol 2006;4:209-221. Scaffidi P, Misteli T. Reversal of the cellular phenotype in the premature aging disease Hutchinson-Gilford progeria syndrome. Nat.
NCGC Assay Protocol Summary: Reagents/Controls: Stable clones expressing DsRed2 and lamin A-EGFP were generated by Cell and Molecular Technologies in S3 HeLa cells. HeLa cells were prepared for the assay when they were 70-90% confluent. The cells were counted and resuspended in Opti-MEM I (no phenol red; Gibco), 2% FBS, 1% penicillin/ streptomycin (Gibco) at concentration of 120 cells/uL concentration. The suspension was passed through a Falcon basket filter with pore size 40um (Beckton Dickson). Control titrations: column […] 1536-well plate contained a sixteen point titration (1:2 dilutions) in duplicate of ancitabine (Sigma: A8598) beginning at 40 uM final concentration. Column 2 contained a sixteen point titration (1:2 dilutions) of cycloheximide beginning at 1.4 mM final concentration. Column 3 contained ancitabine at 40 uM and column 4 contained was the vehicle control (0.5% DMSO final concentration). Assay Steps: 5 uL of HeLa cells were plated in Aurora LoBase black clear bottom (cyclic-olefin polymer) 1536-well plates at a final density of 600 cells/well. Controls and library compounds were added with a 1536-well pin array using the Kalypsys pin-tool. The plates were then incubated for 48 hrs in a cell-culture incubator (37 °C; 5% CO2, 98% humidity). Following incubation the plates were read on the Acumen Explorer using the 488 nm laser. Data was collected on objects between 10 and 100 um in size. Cell objects were defined by a 15 um width x 10 um depth filter. The ratio of the total object intensity in PMT1 (500-530 nm emission; GFP) over PMT3 (575-640 nm emission; RFP) was calculated for analysis. Keywords: NIH Roadmap, MLSCN, MLI, MLSMR, qHTS, NCGC, lamin A, Progeria, RNA splicing.
On the technique in general: In qHTS, concentration-response curves come from the screen itself.

Where [1] appears, read: measured here: GFP splicing reporter channel.
The mark [2] stands for this setting: measured here: RFP viability control channel.

The AC50 is the concentration giving half of the maximal activity seen. `O=C(COc1ccccc1F)Nc1nnc(SCc2cc(=O)c3ccccc3[nH]2)s1`: under setting [1], the AC50 is 0.501 µM [rising, full curve, poor fit].

Take `C=CCc1c(C)nc2nc(SCC(=O)Nc3ccc(C)c(C)c3)nn2c1C`: the AC50 runs as follows: under setting [1], 35.5 µM [falling, single point]; under setting [2], 25.1 µM [falling, partial curve, poor fit]. Take `O=[N+]([O-])c1ccc(S(=O)(=O)N2CCSC2c2ccco2)cc1` (configuration not stated): the AC50 under setting [1] was 0.2 µM [rising, full curve]. `O=C(CSc1nc2ncc(Cl)cc2[nH]1)NC1CCS(=O)(=O)C1` (configuration not stated): the AC50 under setting [2] was 2.82 µM [falling, full curve]. Take `CSCC[C@H](NC(=O)COc1ccc(Cl)cc1Cl)c1nc2ccccc2[nH]1`: under setting [2], the AC50 was 22.4 µM [rising, single point].

For `Cc1cc(F)ccc1S(=O)(=O)N1CCCOC1CNC(=O)C(=O)NCCC1=CCCCC1` (configuration not stated), the AC50 under setting [1] is 0.794 µM [rising, partial curve, poor fit].

For the compound `COCC(C)n1c(C)cc(C(=O)CSc2nnnn2-c2ccc(O)cc2)c1C` (configuration not stated), the AC50 under setting [1] is 0.0224 µM [falling, full curve, poor fit].

As for `CC(C)(C)c1ccc(CNc2cc(N3CCOCC3)ccc2[N+](=O)[O-])cc1`, the AC50 was 11.2 µM [rising, partial curve, poor fit] under setting [1] and 31.6 µM [rising, single point] under setting [2]. Take `CCC1CCCCN1C(=O)CSc1nnc(-c2ccc3c(c2)OCCO3)o1` (configuration not stated): under setting [2], the AC50 was 15.8 µM [rising, single point]. For `O=c1c2c(nc3c(-c4ccccc4)c[nH]n13)CCC2`, the AC50 under setting [1] is 17.8 µM [falling, single point]. Turning to `COc1ccc(C2C(C#N)=C(N)N(Nc3ccccc3)C3=C2C(=O)CC(C)(C)C3)cc1C` (configuration not stated), the AC50 under setting [1] was 35.5 µM [falling, single point] and the AC50 under setting [2] is 12.6 µM [falling, partial curve]. Turning to `O=C(Oc1ccc(-c2ccccc2)cc1)N1CCCCC1`, the concentration at half-maximal activity (AC50) is 35.5 µM [rising, single point] under setting [1] and 31.6 µM [rising, single point] under setting [2].

`CCOc1ccc(S(=O)(=O)n2cc(-c3ccc(F)cc3)c(N)n2)cc1`: the AC50 under setting [2] was 35.5 µM [rising, single point]. For the compound `COc1ccc(CCNC(=O)c2cnn(-c3ccc(F)cc3)c2C2CCN(C(=O)OC(C)(C)C)CC2)c(OC)c1`, the AC50 under setting [1] is 35.5 µM [falling, single point]. `Cc1c(NC(=O)CSc2nnc3c4ccccc4n(CCc4ccccc4)c3n2)c(=O)n(-c2ccccc2)n1C`: the AC50 is 6.31 µM [falling, partial curve] under setting [1] and 35.5 µM [falling, single point] under setting [2]. For `CCOc1ccc(C2=NNC(c3cccs3)=Nc3ccc(OC)cc32)cc1`, under setting [2], the AC50 was 15.8 µM [rising, partial curve, poor fit]. As to `CCCCOc1ccc(S(=O)(=O)NNC(=O)c2cc3ccccc3o2)cc1`, under setting [2], the AC50 is 10 µM [rising, single point]. With `CCN(CC)S(=O)(=O)c1ccc2c(c1)C(=NO)c1cc(S(=O)(=O)N(CC)CC)ccc1-2`, the AC50 under setting [1] was 1.41 µM [rising, partial curve]. Consider `Cc1cc(C)cc(-n2c(N)c(C(=O)Nc3c(C)n(C)n(-c4ccccc4)c3=O)c3nc4ccccc4nc32)c1`, for which the AC50 under setting [2] was 35.5 µM [rising, single point]. Turning to `Cc1ccc2nc(-c3ccc(NS(=O)(=O)c4ccc(F)c(F)c4)cc3)sc2c1`, under setting [2], the half-maximal activity concentration (AC50) is 35.5 µM [rising, single point]. Take `O=C(NCCC1=CCCCC1)c1ccc2c(=O)n3nc(Nc4ccccc4)sc3nc2c1`: the AC50 is 15.8 µM [falling, single point] under setting [1] and 17.8 µM [falling, partial curve, poor fit] under setting [2]. Consider `CCCn1c(=O)c(C(=O)NCc2ccccn2)c(O)c2ccccc21`, for which, under setting [2], the AC50 is 17.8 µM [rising, single point].

For the compound `Cc1ccc(C(=O)Nc2nc(COc3ccccc3)cs2)s1`, the AC50 under setting [1] was 6.31 µM [rising, full curve] and the AC50 under setting [2] was 8.91 µM [rising, partial curve]. With `CCOc1cc(CNc2ccc(N3CCN(C(C)=O)CC3)cc2)cc(Br)c1OC`, under setting [2], the AC50 was 25.1 µM [rising, single point]. `Cc1cccc(-n2ncc3c(NCCCO)ncnc32)c1`: under setting [2], the AC50 was 0.0316 µM [rising, full curve, poor fit]. With `CCOC(=O)c1c(-c2ccccc2)csc1NC(=O)c1nn(CC)cc1Br`, the AC50 is, setting by setting: under setting [1], 10 µM [rising, partial curve, poor fit]; under setting [2], 35.5 µM [rising, single point]. Consider `Cc1[nH]c2ccc(-c3n[nH]c(=S)n3-c3ccccc3)cc2c1C`, for which the AC50 under setting [1] is 35.5 µM [rising, single point].

As to `CCOC(=O)/C(=C\C=C1/Sc2cc(OCC)c(OCC)cc2N1CC)C(C)=O`, the AC50 under setting [1] was 8.91 µM [falling, partial curve] and the AC50 under setting [2] was 7.08 µM [falling, partial curve]. Take `COc1ccc(S(=O)(=O)N2CCN(c3ccccc3OC)CC2)cc1OC`: the AC50 under setting [2] was 31.6 µM [rising, single point].

As to `COc1ccccc1NC(=S)N(Cc1ccco1)Cc1cc2cc(C)cc(C)c2[nH]c1=O`, the AC50 under setting [2] is 10 µM [rising, partial curve]. Same read-out and setting: to `Fc1ccc(NC(=S)NC2CCCCC2)c(F)c1F` belongs 14.1 µM [rising, single point]. Take `O=C(NC(Cc1c[nH]c2ccccc12)C(=O)N/N=C/c1ccc(Cl)cc1)c1cccs1` (configuration not stated): under setting [1], the AC50 is 0.00355 µM [falling, full curve, poor fit].

On to `O=C(NNc1cc(N2CCOCC2)nc(N2CCOCC2)n1)c1ccc([N+](=O)[O-])cc1`, for which, under setting [2], the AC50 is 2.82 µM [falling, partial curve, poor fit]. As for `Cc1cccc(N2CCN(C(=O)Cc3ccc(-n4c(=O)[nH]c5ccsc5c4=O)cc3)CC2)c1C`, the AC50 under setting [2] was 12.6 µM [rising, single point]. For `Cc1ccccc1OCC(=O)Nc1ccc2nc(SCc3ccccc3)sc2c1`, the AC50 under setting [1] was 1.58 µM [rising, full curve]. With `Cc1nn(-c2ccccc2)c2sc(-c3n[nH]c(=S)o3)cc12`, the AC50 under setting [2] is 11.2 µM [rising, partial curve]. As to `COc1nc(Nc2cccc(C)c2)nc(N2CCCCC2)n1`, the AC50 under setting [1] was 3.55 µM [rising, partial curve, poor fit] and the AC50 under setting [2] was 11.2 µM [rising, partial curve]. `O=C(Cc1csc(Nc2nc(=S)[nH]c3ccccc23)n1)N1CCN(c2cccc(C(F)(F)F)c2)CC1`: the AC50 runs as follows: under setting [1], 4.47 µM [falling, partial curve]; under setting [2], 7.94 µM [falling, partial curve]. As to `CCN(CC)S(=O)(=O)c1ccc(-c2ccc(S(=O)(=O)N(CC)CC)cc2)cc1`, the AC50 under setting [2] was 7.94 µM [rising, partial curve]. For the compound `C=CCNC(=O)C(=O)NCCOc1ccccc1Cl`, the AC50 under setting [2] is 17.8 µM [rising, single point]. Consider `O=C(c1cccc(NS(=O)(=O)c2ccc(F)c(F)c2)c1)N1CCN(C(c2ccccc2)c2ccccc2)CC1`, for which, under setting [2], the AC50 was 2.82 µM [rising, partial curve]. `COc1ccc(CCNC(=O)CSCc2c(F)cccc2Cl)cc1OC`: the AC50 under setting [2] was 4.47 µM [rising, partial curve, poor fit]. On to `CC1(C)CC(C(CC(=O)O)c2ccccc2)CCO1` (configuration not stated), for which, under setting [1], the AC50 was 0.01 µM [rising, full curve, poor fit]. For the compound `CC(=O)Nc1nc(-c2ccccc2)nc(-c2ccccc2OC(C)=O)n1`, the AC50 was 14.1 µM [rising, single point] under setting [1] and 11.2 µM [rising, partial curve] under setting [2]. Take `Cc1ccccc1-c1nnc(SCC(=O)N(C)C2CCCCC2)o1`: the AC50 under setting [1] was 0.00447 µM [rising, full curve, poor fit].

`COc1ccc(-c2noc(-c3ccccc3C(=O)Nc3cccc(OC)c3)n2)cc1`: under setting [2], the AC50 is 0.00447 µM [rising, full curve, poor fit]. In the case of `CCN(C(=O)Cn1cnc2onc(-c3ccc(F)cc3)c2c1=O)c1cc(C)ccc1C`, the AC50 under setting [1] is 5.62 µM [falling, partial curve].

`CCc1ccc(Nc2cc(=O)n(C3CCCCC3)c(=O)[nH]2)cc1`: the AC50 under setting [2] was 22.4 µM [rising, single point]. Turning to `COc1ccc(-n2nc3cc(C)c(NC(=S)NC(=O)c4ccccc4C)cc3n2)cc1`, the AC50 under setting [1] is 12.6 µM [falling, partial curve] and the AC50 under setting [2] is 11.2 µM [falling, partial curve]. With `Cc1ccc(-c2csc(=Nc3cccnc3)n2CCCn2ccnc2)cc1C`, the AC50 is 7.94 µM [rising, partial curve] under setting [1] and 12.6 µM [rising, partial curve] under setting [2]. Turning to `COc1cccc(Cc2nc3ccccc3nc2SCC(=O)NCc2ccc(C)cc2)c1`, the AC50 is 1.58 µM [rising, partial curve] under setting [1] and 0.631 µM [rising, partial curve] under setting [2]. Regarding `Cc1nn2c(nc(N3CCOCC3)c3ccccc32)c1C=C(C#N)C#N`, the AC50 under setting [2] was 22.4 µM [rising, single point]. In the case of `Cn1c(N)c(C(=O)COC(=O)CCCOc2ccc(Cl)cc2Cl)c(=O)n(C)c1=O`, the concentration at half-maximal activity (AC50) is 0.398 µM [rising, full curve] under setting [1] and 0.0794 µM [rising, full curve, poor fit] under setting [2]. With `O=C(COc1ccccc1O)Nc1ccccc1Cl`, the AC50 under setting [1] was 35.5 µM [rising, single point]. As to `CN1/C(=C\C(=O)C[n+]2cccc(C(N)=O)c2)C(C)(C)c2ccccc21`, the AC50 is 0.00631 µM [falling, full curve, poor fit] under setting [1] and 0.0224 µM [falling, full curve, poor fit] under setting [2].
